Measured values taken from the supplement of paper PMC10849652.
The list shows a part of the results.

Chains of the proteins cited; added tags and fusions are not shown. Lines headed by an entry give the natural chain unless they say otherwise; changes in a name come on top.
UniProt Q969S3: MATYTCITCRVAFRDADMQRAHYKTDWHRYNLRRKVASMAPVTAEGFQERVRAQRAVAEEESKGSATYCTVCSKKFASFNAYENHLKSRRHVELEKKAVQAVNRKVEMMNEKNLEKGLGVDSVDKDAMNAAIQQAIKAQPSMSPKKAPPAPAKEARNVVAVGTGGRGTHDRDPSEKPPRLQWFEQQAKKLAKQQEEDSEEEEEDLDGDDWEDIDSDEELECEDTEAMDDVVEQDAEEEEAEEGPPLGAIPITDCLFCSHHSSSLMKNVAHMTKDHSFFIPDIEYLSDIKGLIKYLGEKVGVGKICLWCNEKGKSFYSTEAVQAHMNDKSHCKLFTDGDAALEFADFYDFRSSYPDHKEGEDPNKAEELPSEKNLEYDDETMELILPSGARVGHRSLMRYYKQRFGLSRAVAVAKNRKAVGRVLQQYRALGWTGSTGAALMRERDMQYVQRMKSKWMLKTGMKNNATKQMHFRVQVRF
UniProt Q6DD87: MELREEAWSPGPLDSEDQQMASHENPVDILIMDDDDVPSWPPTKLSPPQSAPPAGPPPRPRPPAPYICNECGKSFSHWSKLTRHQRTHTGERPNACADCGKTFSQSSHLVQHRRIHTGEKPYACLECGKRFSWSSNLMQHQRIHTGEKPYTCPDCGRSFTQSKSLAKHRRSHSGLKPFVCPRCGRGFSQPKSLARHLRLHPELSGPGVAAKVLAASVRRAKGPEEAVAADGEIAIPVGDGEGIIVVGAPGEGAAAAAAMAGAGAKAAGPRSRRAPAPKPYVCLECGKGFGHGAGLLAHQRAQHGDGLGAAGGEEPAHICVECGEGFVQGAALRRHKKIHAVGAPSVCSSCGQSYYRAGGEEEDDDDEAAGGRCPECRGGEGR
UniProt Q5VV52: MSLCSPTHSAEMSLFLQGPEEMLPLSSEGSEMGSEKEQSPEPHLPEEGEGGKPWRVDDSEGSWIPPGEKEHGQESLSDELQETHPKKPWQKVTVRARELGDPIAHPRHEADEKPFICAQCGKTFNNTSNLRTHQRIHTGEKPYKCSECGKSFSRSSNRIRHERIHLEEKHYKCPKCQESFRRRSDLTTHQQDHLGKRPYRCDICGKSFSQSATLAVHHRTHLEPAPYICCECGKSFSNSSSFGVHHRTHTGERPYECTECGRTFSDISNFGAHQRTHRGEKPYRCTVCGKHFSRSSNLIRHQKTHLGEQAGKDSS
UniProt Q8TF68: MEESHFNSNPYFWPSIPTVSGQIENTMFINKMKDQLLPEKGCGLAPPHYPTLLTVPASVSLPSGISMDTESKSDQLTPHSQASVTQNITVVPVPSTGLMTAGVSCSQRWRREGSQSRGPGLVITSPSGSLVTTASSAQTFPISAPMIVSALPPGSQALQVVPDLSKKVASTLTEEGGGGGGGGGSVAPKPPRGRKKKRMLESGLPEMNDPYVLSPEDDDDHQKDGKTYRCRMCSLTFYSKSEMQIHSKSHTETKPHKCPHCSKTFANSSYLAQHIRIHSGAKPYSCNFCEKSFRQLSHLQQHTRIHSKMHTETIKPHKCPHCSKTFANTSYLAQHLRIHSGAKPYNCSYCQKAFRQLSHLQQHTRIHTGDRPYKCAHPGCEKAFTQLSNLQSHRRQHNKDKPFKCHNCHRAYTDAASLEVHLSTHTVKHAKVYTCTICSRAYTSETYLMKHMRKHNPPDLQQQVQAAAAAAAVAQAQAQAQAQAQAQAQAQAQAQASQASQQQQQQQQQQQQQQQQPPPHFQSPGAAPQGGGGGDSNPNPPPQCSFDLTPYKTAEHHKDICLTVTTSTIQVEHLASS
UniProt Q9Y5V0: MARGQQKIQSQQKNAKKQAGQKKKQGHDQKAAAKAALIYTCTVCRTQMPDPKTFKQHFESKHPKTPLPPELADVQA
UniProt Q86UK7: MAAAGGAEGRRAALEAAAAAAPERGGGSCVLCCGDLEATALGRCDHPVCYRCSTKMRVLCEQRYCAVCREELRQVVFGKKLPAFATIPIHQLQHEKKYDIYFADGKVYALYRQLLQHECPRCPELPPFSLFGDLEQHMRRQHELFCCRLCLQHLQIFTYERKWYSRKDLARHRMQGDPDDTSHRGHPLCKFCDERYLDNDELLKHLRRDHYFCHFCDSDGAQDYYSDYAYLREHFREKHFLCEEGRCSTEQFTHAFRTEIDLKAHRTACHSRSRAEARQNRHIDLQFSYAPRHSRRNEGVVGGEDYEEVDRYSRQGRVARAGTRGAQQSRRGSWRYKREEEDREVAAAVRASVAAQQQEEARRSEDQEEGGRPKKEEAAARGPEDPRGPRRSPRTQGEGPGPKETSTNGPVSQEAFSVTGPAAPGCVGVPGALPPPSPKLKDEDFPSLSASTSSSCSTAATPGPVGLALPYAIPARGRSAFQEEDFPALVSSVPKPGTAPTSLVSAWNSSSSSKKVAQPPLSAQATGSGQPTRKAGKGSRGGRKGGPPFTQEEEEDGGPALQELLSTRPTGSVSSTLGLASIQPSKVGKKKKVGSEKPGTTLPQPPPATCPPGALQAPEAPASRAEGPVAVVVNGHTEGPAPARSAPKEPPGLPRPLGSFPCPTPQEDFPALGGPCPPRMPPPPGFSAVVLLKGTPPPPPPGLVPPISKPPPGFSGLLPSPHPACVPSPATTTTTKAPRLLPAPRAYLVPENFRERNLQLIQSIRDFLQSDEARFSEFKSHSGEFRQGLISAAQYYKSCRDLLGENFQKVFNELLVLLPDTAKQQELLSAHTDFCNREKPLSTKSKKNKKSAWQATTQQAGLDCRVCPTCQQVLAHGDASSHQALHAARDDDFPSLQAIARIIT
UniProt Q499Z4: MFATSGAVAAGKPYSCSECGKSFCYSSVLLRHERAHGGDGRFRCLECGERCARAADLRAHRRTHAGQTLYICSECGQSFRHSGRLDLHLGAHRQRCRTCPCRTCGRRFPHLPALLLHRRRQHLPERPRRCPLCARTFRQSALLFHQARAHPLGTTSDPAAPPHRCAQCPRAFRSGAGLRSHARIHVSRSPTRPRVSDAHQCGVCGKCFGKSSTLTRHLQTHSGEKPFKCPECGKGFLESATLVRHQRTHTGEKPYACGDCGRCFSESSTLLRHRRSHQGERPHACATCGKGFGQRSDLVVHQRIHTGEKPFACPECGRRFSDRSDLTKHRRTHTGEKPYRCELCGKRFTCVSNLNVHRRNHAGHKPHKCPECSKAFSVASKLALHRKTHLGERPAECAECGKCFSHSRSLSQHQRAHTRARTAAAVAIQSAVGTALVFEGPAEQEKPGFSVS
UniProt Q8ND25: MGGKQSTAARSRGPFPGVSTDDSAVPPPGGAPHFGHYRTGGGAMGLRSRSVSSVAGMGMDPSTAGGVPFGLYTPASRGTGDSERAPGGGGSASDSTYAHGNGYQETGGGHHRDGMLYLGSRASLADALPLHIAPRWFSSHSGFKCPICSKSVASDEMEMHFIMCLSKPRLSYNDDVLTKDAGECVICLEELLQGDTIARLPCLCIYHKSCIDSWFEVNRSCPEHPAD

Legend:
Assay in all cases: log2 fold change, soluble protein after heating vs DMSO (PISA); higher = thermal stabilisation; K562 cells, 10 uM, 30 min; active = over 0.2 and 3.5 SD of the protein, either way, in both replicates (recomputed)
[1] = compound: C1=CC=C(C=C1)[C@H](COC2=CC3=C(C=C2)NC(=O)N3)NC(=O)C4=CC=CN(C4=O)CC5=CC(=C(C=C5)F)F
Outline: (§1)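 K562 cells at 2×10^6 cells/mL were exposed to 10 μM compound for 30 min, then aliquots were heated for 3 min across 48°C-58°C, pooled, and extracted in PBS containing 0.5% NP-40 at 4°C. The supernatant after 21,000xg for 90 min was taken as soluble protein and measured by TMTpro 16plex LC-MS/MS with channel sums equalised. Thermal stability is reported relative to control samples, with values from duplicates. Fold changes are given on a log2 scale.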

[2] = compound: CC1=C(SC2=C1C(=N[C@H](C3=NN=C(N32)C)CC(=O)N)C4=CC=C(C=C4)Cl)C
Outline: as §1

[3] = compound: CC1=C2C(=CC=C1)N=C(N(C2=O)C3=CC=CC=C3C)CN4C=NC5=C(N=CN=C54)N
Outline: as §1

[4] = compound: Cc1sc2c(c1C)C(c1ccc(Cl)cc1)=N[C@@H](CC(=O)OC(C)(C)C)c1nnc(C)n1-2
Outline: as §1

[5] = compound: c1ccc([C@@H]2C[C@H]2NC2CCNCC2)cc1
Outline: as §1

Measured: log2 fold change

ZNF622 (UniProt Q969S3)
inactive: [1] -0.028 | [2] 0.033 | [3] 0.073 | [4] -0.016 | [5] -0.049

ZNF787 (UniProt Q6DD87)
inactive: [1] 0.054 | [2] -0.254 | [3] -0.144 | [4] 0.06 | [5] 0.054

ZNF691 (UniProt Q5VV52)
inactive: [1] 0.073 | [2] -0.128 | [3] 0.112 | [4] 0.079 | [5] 0.042

ZNF384 (UniProt Q8TF68)
inactive: [1] 0.117 | [2] -0.018 | [3] -0.087 | [4] 0.018 | [5] -0.061

ZNF706 (UniProt Q9Y5V0)
inactive: [1] -0.003 | [2] -0.098 | [3] -0.057 | [4] 0.038 | [5] 0

ZNF428 (UniProt M0QXZ5)
inactive: [1] -0.034 | [2] 0.042 | [3] 0.019 | [4] -0.009 | [5] 0.092

ZNF598 (UniProt Q86UK7)
inactive: [1] -0.067 | [2] 0.05 | [3] 0.054 | [4] 0.015 | [5] -0.08

ZNF672 (UniProt Q499Z4)
inactive: [1] 0.045 | [2] -0.105 | [3] -0.049 | [4] 0.085 | [5] -0.001

ZNRF1 isoform 2 (UniProt Q8ND25)
inactive: [1] -0.028 | [2] 0.053 | [3] -0.017 | [4] -0.028 | [5] -0.078
